Data as given in PubChem BioAssay AID1259308 (NCATS, 2017)

Assay: 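Candidate targets for better recombinant protein yield in mammalian cells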 (primary screen)
Cell system: human HEK293 embryonic kidney cells stably expressing firefly luciferase (HEK-CMV-Luc2-Hygro)
Reagents: single siRNA against human genes, 0.8 pmol siRNA per well
Duration: 72 h
Measured: 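Luciferase light (ONE-Glo) measured on one replicate plate set and viability (CellTiter-Glo) on the other, scaled to a negative control siRNA, with robust z-scores and luciferase per cell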
Reading the numbers: total luciferase, z-score and total luciferase, % of control: higher = more reporter protein produced; luciferase per cell, z-score: higher = more reporter output per viable cell
Active means: 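An siRNA counts as active if its total luciferase robust z-score exceeds 3; genes with two or more such siRNAs out of three were retested with fresh siRNAs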
Calls: active = raised luciferase; inactive = no rise
The whole screen tested about 59,000 reagents; below is a part drawn at random. About 1,510 of all reagents (2.6%) count as active. 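Calls use total luciferase alone and ignore viability, so some active siRNAs may act by altering cell number.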 A number with no mark means an inactive call. The numbers tell different reagents against one gene apart. Further read-outs or replicates are left out here.

| gene symbol | reagent no. | total luciferase, z-score | total luciferase, % of control | luciferase per cell, z-score |
| --- | --- | --- | --- | --- |
| PLPPR3 | 1 | -0.0811 | 80.3 | -0.533 |
| PLPPR3 | 2 | 0.466 | 91.2 | 0.888 |
| PLPPR3 | 3 | 0.156 | 85 | 0.217 |
| ZIC3 | 1 | -0.0218 | 81.5 | 0.512 |
| ZIC3 | 2 | 2.49 | 131 | 2.4 |
| ZIC3 | 3 | -0.37 | 74.5 | -0.57 |
| ENPP7 | 1 | -0.72 | 67.6 | -0.849 |
| ENPP7 | 2 | -0.717 | 67.6 | 0.441 |
| ENPP7 | 3 | -0.687 | 68.2 | 0.32 |
| VSTM1 | 1 | 1.21 | 106 | 1.17 |
| VSTM1 | 2 | 0.401 | 89.9 | 0.395 |
| VSTM1 | 3 | -1.48 | 52.5 | -1.23 |
| SPDYE5 | 1 | 0.507 | 92 | 0.323 |
| SPDYE5 | 2 | 0.155 | 85 | -0.586 |
| SPDYE5 | 3 | -0.107 | 79.8 | -0.491 |
| PARD6G | 1 | -0.196 | 78 | -0.311 |
| PARD6G | 2 | -0.317 | 75.6 | -0.492 |
| PARD6G | 3 | -0.532 | 71.3 | -0.00858 |
| NLGN3 | 1 | -0.369 | 74.6 | 0.159 |
| NLGN3 | 2 | -1.78 | 46.4 | -2.01 |
| NLGN3 | 3 | 0.165 | 85.2 | -0.27 |
| APOA2 | 1 | -1.2 | 58 | -0.768 |
| APOA2 | 2 | -0.448 | 73 | -0.544 |
| APOA2 | 3 | 0.324 | 88.3 | 0.0576 |
| PGBDF | 1 | 2.6 | 134 | 2.15 |
| PGBDF | 2 | 1.84 | 119 | 1.59 |
| PGBDF | 3 | 0.588 | 93.6 | 0.179 |
| PMP22 | 1 | 3.08 (active) | 143 | 3.05 |
| PMP22 | 2 | 2.05 | 123 | 1.94 |
| PMP22 | 3 | -0.831 | 65.4 | -1.03 |
| KLRC4 | 1 | -0.0182 | 81.5 | -0.237 |
| KLRC4 | 2 | 0.509 | 92 | 0.0985 |
| KLRC4 | 3 | -0.354 | 74.8 | -0.752 |
| WDR45 | 1 | 1.84 | 118 | 1.27 |
| WDR45 | 2 | 1.35 | 109 | 1.32 |
| WDR45 | 3 | 0.248 | 86.8 | -0.0724 |
| COX15 | 1 | 1 | 102 | 1.89 |
| COX15 | 2 | 0.68 | 95.4 | 0.515 |
| COX15 | 3 | 0.225 | 86.4 | 0.158 |

Quoted from above (3 entries):
| gene symbol | reagent no. | total luciferase, z-score | total luciferase, % of control | luciferase per cell, z-score |
| --- | --- | --- | --- | --- |
| APOA2 | 1 | -1.2 | 58 | -0.768 |
| APOA2 | 2 | -0.448 | 73 | -0.544 |
| APOA2 | 3 | 0.324 | 88.3 | 0.0576 |
